The supplement of paper PMC4749390
Counter-ions that a name gives are not always drawn. The list shows a part of the results. Single values are uncertain here, since repeats match poorly.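 JEG3 cells stably express tetracycline-inducible wild-type human LRH-1, a highly sumoylated nuclear receptor. SUMO-sensitive transcripts APOC3 and MUC1, increased by SUMO-deficient LRH-1 or UBC9 knockdown, were quantified by RT-qPCR relative to TBP and DMSO controls. Primary hits had robust Z-scores above +2 or below -2, before toxicity and TBP filtering.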

Tested on: JEG3 expressing hLRH-1
Assay: APOC3 transcript change (ddCt vs TBP and DMSO), Z-score over library; higher = higher APOC3 expression
Conditions: 10 µM; time (hr): 24

Structure (SMILES) | APOC3 transcript change (Z-score)
Oc1c(Cl)cc(Cl)cc1Sc1cc(Cl)cc(Cl)c1O [bithionol] | -1.45
CC(=O)c1ccc2c(c1)N(CCCN(C)C)c1ccccc1S2 [acepromazine maleate] | 0.46
CN1CCC(OC(c2ccccc2)c2ccccc2)CC1 [diphenylpyraline hydrochloride] | -0.278
Cn1nnc2c(C(N)=O)ncn2c1=O [temozolamide] | -0.747
OCCc1ccccc1 [phenylethyl alcohol] | -0.43
C[C@H]1c2cccc(O)c2C(=O)C2=C(O)[C@]3(O)C(O)=C(C(N)=O)C(=O)[C@@H](N(C)C)[C@@H]3[C@@H](O)[C@@H]21 [doxycycline hydrochloride] | 0.325
Nc1ccc(C(=O)O)c(O)c1 [sodium p-aminosalicylate] | 0.115
CN(C)CCCN1c2ccccc2Sc2ccc(Cl)cc21 [Chlorpromazine hydrochloride] | 0.531
CS(=O)(=O)Nc1ccc([N+](=O)[O-])cc1Oc1ccccc1 [nimesulide] | -0.805
O=C(O)c1ccccc1O [sodium salicylate] | -0.00182
CCCCOc1cc(C(=O)OCCN(CC)CC)ccc1N [benoxinate hydrochloride] | 0.461
CCC(=O)O[C@]1(C(=O)SCF)[C@H](C)C[C@H]2[C@@H]3C[C@H](F)C4=CC(=O)C=C[C@]4(C)[C@@]3(F)[C@@H](O)C[C@@]21C [fluticasone propionate] | 0.493
CCn1nc(C(=O)O)c(=O)c2cc3c(cc21)OCO3 [cinoxacin] | -0.248
COC(=O)[C@H](c1ccccc1Cl)N1CCc2sccc2C1 [clopidogrel sulfate] | -0.131
C1CCC(C(CC2CCCCN2)C2CCCCC2)CC1 (centres undefined) [perhexiline maleate] | 1.47
CN1CCC(=C2c3ccccc3C=Cc3ccccc32)CC1 [Cyproheptadine hydrochloride] | -0.161
OCc1ccccn1 [piconol] | -0.0605
COCCc1ccc(OCC(O)CNC(C)C)cc1 (centres undefined) [metoprolol tartrate] | 1.02
COc1cc(CNC(=O)CCCC/C=C/C(C)C)ccc1O [e-capsaicin] | 0.621
CC[C@H]1OC(=O)[C@H](C)[C@@H](O[C@H]2C[C@@](C)(OC)[C@@H](O)[C@H](C)O2)[C@H](C)[C@@H](O[C@@H]2O[C@H](C)C[C@H](N(C)C)[C@H]2O)[C@](C)(OC)C[C@@H](C)C(=O)[C@H](C)[C@@H](O)[C@]1(C)O [clarithromycin] | 0.246
C=NC(C(=O)NC1C(=O)N2C1SC(C)(C)C2C(=O)O)c1ccccc1 (centres undefined) [metampicillin sodium] | -0.0793
CCOC(=O)OC(C)OC1=C(C(=O)Nc2ccccn2)N(C)S(=O)(=O)c2ccccc21 (centres undefined) [ampiroxicam] | 0.132
COc1ccc(C(=O)c2ccccc2O)c(O)c1 [dioxybenzone] | -0.284
CC1CCCC(C)N1 (centres undefined) [nanofin] | -0.147
CC(=O)Nc1cccc(O)c1 [metacetamol] | -0.0285
CC(=O)OCC(CCn1cnc2cnc(N)nc21)COC(C)=O [famciclovir] | -0.584
CC[N+](CC)(CC)CCOc1cccc(OCC[N+](CC)(CC)CC)c1OCC[N+](CC)(CC)CC [Gallamine triethiodide] | -0.702

A second format for 3 compounds above.
Structure (SMILES)	APOC3 transcript change (Z-score)
CCCCOc1cc(C(=O)OCCN(CC)CC)ccc1N [benoxinate hydrochloride]	0.461
CCC(=O)O[C@]1(C(=O)SCF)[C@H](C)C[C@H]2[C@@H]3C[C@H](F)C4=CC(=O)C=C[C@]4(C)[C@@]3(F)[C@@H](O)C[C@@]21C [fluticasone propionate]	0.493
CCn1nc(C(=O)O)c(=O)c2cc3c(cc21)OCO3 [cinoxacin]	-0.248

2 of the compounds above, with tabs.
Structure (SMILES)	APOC3 transcript change (Z-score)
CC1CCCC(C)N1 (centres undefined) [nanofin]	-0.147
CC(=O)Nc1cccc(O)c1 [metacetamol]	-0.0285

Further entries.

Structure (SMILES) | APOC3 transcript change (Z-score)
CC(=O)[C@H]1CCC2C3CCC4=CC(=O)CC[C@]4(C)C3CC[C@@]21C (some centres undefined) [progesterone] | 0.743
CC(C)(C)NCC(O)c1cc(O)cc(O)c1 (centres undefined) [terbutaline hemisulfate] | -0.188
CCCC(=O)Nc1ccc(OCC(O)CNC(C)C)c(C(C)=O)c1 (centres undefined) [acebutolol hydrochloride] | -0.162
CC(Oc1c(Cl)cccc1Cl)C1=NCCN1 (centres undefined) [lofexidine  hydrochloride] | -0.89
C#CCN(C)CCCOc1ccc(Cl)cc1Cl [Clorgyline hydrochloride] | -1.65
Cc1cn([C@H]2C[C@H](N=[N+]=[N-])[C@@H](CO)O2)c(=O)[nH]c1=O [zidovudine [azt]] | -0.973
Clc1ccc2c(c1)CCc1cccnc1C2=C1CCNCC1 [desloratidine] | 0.337
C#CCN(C)Cc1ccccc1 [Pargyline hydrochloride] | -0.0763
CCOC(=O)c1ncn2c1CN(C)C(=O)c1cc(F)ccc1-2 [flumazenil] | 0.0221
O=C(O)/C=C/C(=O)O [fumaric acid] | -0.261
CO[C@@]1(NC(=O)CSCC#N)C(=O)N2C(C(=O)O)=C(CSc3nnnn3C)CSC21 (some centres undefined) [cefmetazole sodium] | 0.537
NC(=O)NC1NC(=O)NC1=O (centres undefined) [allantoin] | 0.148
CCCCCOC(=O)Nc1nc(=O)n([C@@H]2O[C@H](C)[C@@H](O)[C@H]2O)cc1F [capecitabine] | -0.725
O=C(O)c1cc(N=Nc2ccc(O)c(C(=O)O)c2)ccc1O [olsalazine sodium] | 0.663
CC12CCC3c4ccc(O)cc4CCC3C1C[C@H](O)[C@@H]2O (some centres undefined) [epiestriol] | -1.12
O=C1[C@H](CC[C@H](O)c2ccc(F)cc2)[C@@H](c2ccc(O)cc2)N1c1ccc(F)cc1 [ezetimibe] | 0.495
CC(O)(P(=O)(O)O)P(=O)(O)O [etidronate disodium] | 0.516
C/C=C\C1=C(C(=O)O)N2C(=O)C(NC(=O)C(N)c3ccc(O)cc3)C2SC1 (centres undefined) [cefprozil] | 0.376
O=C1/C(=C/c2cccs2)CCC/C1=C\c1cccs1 [tenylidone] | 0.477
CN1C(=O)CC(C)(c2ccccc2)C1=O (centres undefined) [methsuximide] | 0.634
CC(C)(O/N=C(\C(=O)N[C@@H]1C(=O)N2C(C(=O)O)=C(C[n+]3ccccc3)CS[C@H]12)c1csc(N)n1)C(=O)O [ceftazidime] | -0.0611
Cc1nc2ccccc2n1Cc1ccc(Cl)cc1 [chlormidazole] | 0.0713
Cc1cc(O)nc(S)n1 [methylthiouracil] | -0.433
CC(C)NCC(O)c1cc(O)cc(O)c1 (centres undefined) [metaproterenol] | 0.152
CCOC(=O)[C@H](CCc1ccccc1)N[C@@H](C)C(=O)N1[C@H](C(=O)O)C[C@@H]2CCC[C@@H]21 [ramipril] | -0.421
CNC(=O)c1c(I)c(NC(C)=O)c(I)c(C(=O)O)c1I [iothalamic acid] | 0.568
CC(=O)Oc1cc2c(s1)CCN([C@H](C(=O)C1CC1)c1ccccc1F)C2 [prasugrel] | -1.92

Structure (SMILES) | APOC3 transcript change (Z-score)
O=C1CCC(N2C(=O)c3ccccc3C2=O)C(=O)N1 (centres undefined) [thalidomide] | -0.00346
CC1(C)S[C@@H]2[C@H](NC(=O)Cc3ccccc3)C(=O)N2[C@H]1C(=O)O [penicillin g potassium] | 0.769
CCOc1ccc(NC(=O)CC(C)O)cc1 (centres undefined) [bucetin] | 0.563
CCN(CC)CCNC(=O)COc1ccc(OC)cc1 [mefexamide] | -0.641
CC(N)C(=O)OC(C)(C)Cc1ccc(Cl)cc1 (centres undefined) [Alaproclate hydrochloride] | -0.361
CC(=O)OCC1=C(C(=O)O)N2C(=O)[C@@H](NC(=O)Cc3cccs3)[C@H]2SC1 [cephalothin sodium] | 1.06
CC(=O)c1ccc2c(c1)Sc1ccccc1N2CCCN1CCN(CCO)CC1 [acetophenazine maleate] | 0.504
Cc1cccc(Nc2ccccc2C(=O)O)c1C [mefenamic acid] | -0.178
CC(C)(C)C(=O)C(Oc1ccc(Cl)cc1)n1ccnc1 (centres undefined) [climbazole] | -0.542
CCCc1cc(C(N)=S)ccn1 [protionamide] | 0.0556
NC(CO)C(=O)NNCc1ccc(O)c(O)c1O (centres undefined) [Benserazide hydrochloride] | -0.0953
COc1ccc(CC2c3cc(OC)c(OC)cc3CC[N+]2(C)CCC(=O)OCCCCCOC(=O)CC[N+]2(C)CCc3cc(OC)c(OC)cc3C2Cc2ccc(OC)c(OC)c2)cc1OC (centres undefined) [atracurium besylate] | 0.686
Nc1nc(O)c2ncn(CCC(CO)CO)c2n1 [penciclovir] | 0.778
CC1=C(/C=C/C(C)=C/C=C/C(C)=C/C(=O)O)C(C)(C)CCC1 [tretinon] | 2.98
O=C(O)CCC(=O)c1ccc(-c2ccccc2)cc1 [fenbufen] | -1.16
CCc1c2c(nc3ccc(OC(=O)N4CCC(N5CCCCC5)CC4)cc13)-c1cc3c(c(=O)n1C2)COC(=O)[C@]3(O)CC [irinotecan hydrochloride] | 0.361
CN[C@H]1CC[C@@H](c2ccc(Cl)c(Cl)c2)c2ccccc21 [sertraline hydrochloride] | 1.71
CO/C(O)=C1\C(C)=NC(C)=C(C(=O)OCC(C)C)C1c1ccccc1[N+](=O)[O-] (centres undefined) [nisoldipine] | 2.13
C[C@H]1O[C@H](O[C@H]2[C@H](O)[C@@H](O)[C@@H](O[C@H]3[C@H](O)[C@@H](O)C(O)O[C@@H]3CO)O[C@@H]2CO)[C@H](O)[C@@H](O)[C@@H]1N[C@H]1C=C(CO)[C@@H](O)[C@H](O)[C@H]1O (some centres undefined) [acarbose] | 0.631
C#C[C@]1(OC(C)=O)CCC2C3CCC4=C/C(=N/O)CCC4C3CC[C@@]21CC (some centres undefined) [norgestimate] | 0.153
O[C@H]1[C@H](O)[C@@H](O)[C@H](O)[C@@H](O)[C@H]1O [inositol] | 0.589
NCC[C@H](O)C(=O)N[C@@H]1C[C@H](N)[C@@H](O[C@H]2O[C@H](CN)[C@@H](O)[C@H](O)[C@H]2O)[C@H](O)[C@H]1O[C@H]1O[C@H](CO)[C@@H](O)[C@H](N)[C@H]1O [amikacin sulfate] | -0.702
O=C1c2c(O)cccc2Cc2cccc(O)c21 [anthralin] | 0.876
CCn1cc(C(=O)O)c(=O)c2cc(F)c(N3CCNCC3)nc21 [enoxacin] | -3.11
Cn1c(=O)c2nc[nH]c2n(C)c1=O [Aminophylline] | -0.37
